Source: publication PMC6469404
These are yes or no findings as the source states them, for the method shown. Some entries that bind do so weakly or less than the wild type.

How the values were obtained:
[1] = target: T1, Wsc1p iMYTH bait (Wsc1p-Cub-TF) (S. cerevisiae) (UniProt P54867); experiment: two-hybrid; integrated membrane yeast two-hybrid (iMYTH, split ubiquitin) at 30°: Wsc1p or Mid2p bait with C-terminal Cub-(YFP)-LexA-VP16, NubG-X cDNA library preys; library screen and bait dependency test with artificial bait A0286/A0287 as control; growth and blue colour on SD-WAH or SD-WH + …; THY.AP4 or L40 strains
T1 sequence: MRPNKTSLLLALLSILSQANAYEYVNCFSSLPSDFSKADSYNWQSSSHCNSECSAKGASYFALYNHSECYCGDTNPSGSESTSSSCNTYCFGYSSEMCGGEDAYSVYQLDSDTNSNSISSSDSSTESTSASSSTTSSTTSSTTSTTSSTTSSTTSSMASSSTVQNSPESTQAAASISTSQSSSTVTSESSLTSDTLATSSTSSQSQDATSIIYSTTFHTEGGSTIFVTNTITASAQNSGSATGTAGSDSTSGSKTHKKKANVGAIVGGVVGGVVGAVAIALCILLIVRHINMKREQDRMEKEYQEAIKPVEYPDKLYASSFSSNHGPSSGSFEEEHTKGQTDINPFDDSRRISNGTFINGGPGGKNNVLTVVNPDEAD

[2] = target: T2, Mid2p iMYTH bait (Mid2p-Cub-TF) (S. cerevisiae) (UniProt P36027); experiment: as above
T2 sequence: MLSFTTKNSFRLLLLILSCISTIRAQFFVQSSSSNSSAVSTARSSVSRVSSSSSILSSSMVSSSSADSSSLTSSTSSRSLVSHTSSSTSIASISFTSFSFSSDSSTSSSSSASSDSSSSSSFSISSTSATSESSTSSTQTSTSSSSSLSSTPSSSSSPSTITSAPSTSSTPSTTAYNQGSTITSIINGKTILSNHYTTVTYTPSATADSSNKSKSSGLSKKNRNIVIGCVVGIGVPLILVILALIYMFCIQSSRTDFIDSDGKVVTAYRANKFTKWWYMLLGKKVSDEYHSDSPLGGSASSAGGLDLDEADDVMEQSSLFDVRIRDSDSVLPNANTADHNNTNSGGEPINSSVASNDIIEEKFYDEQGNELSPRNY

binding [1]: binds | binding [2]: binds
B1: YPL238C prey (NubG-X library clone) (protein, UniProt Q99401 1-129)
chain: MLELALGVPSLLSASTLSRPALASSFSNASTLLSFVFFFFFFKDSSPKASAMSSVGSFSASASAETLLDFFFFFFNPANKSSPEPFSLPFTAASKSSGITFLVFFFFFSAGSNPNSAAKSEDISCVLII
